We go through one substance from paper PMC9107400.

By UniProt entry, the sequences of proteins in these tests, tags left out. Where a name states a change or a piece, a line headed by the entry shows the natural chain unless it says otherwise. Chains listed by the source or under a name are the forms on record and can include a tag or linker. Residues count along the entry.
UniProt Q13485: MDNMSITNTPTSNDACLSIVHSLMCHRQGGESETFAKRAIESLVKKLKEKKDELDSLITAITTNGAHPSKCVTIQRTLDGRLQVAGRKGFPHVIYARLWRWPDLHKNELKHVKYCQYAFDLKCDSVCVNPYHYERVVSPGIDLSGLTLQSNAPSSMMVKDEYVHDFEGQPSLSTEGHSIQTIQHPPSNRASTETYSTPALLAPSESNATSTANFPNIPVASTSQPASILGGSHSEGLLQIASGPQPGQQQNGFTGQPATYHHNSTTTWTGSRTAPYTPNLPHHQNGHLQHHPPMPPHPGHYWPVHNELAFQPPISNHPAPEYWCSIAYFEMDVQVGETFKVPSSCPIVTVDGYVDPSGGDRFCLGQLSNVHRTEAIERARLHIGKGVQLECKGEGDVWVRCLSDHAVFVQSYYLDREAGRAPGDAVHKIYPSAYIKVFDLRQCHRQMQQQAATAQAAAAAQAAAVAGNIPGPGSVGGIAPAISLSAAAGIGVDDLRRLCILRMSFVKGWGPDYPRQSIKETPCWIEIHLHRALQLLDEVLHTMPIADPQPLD
FLAG-tagged SMAD4 deletion construct with only the MH1 domain: residues 18-142 of Q13485
UniProt P10275: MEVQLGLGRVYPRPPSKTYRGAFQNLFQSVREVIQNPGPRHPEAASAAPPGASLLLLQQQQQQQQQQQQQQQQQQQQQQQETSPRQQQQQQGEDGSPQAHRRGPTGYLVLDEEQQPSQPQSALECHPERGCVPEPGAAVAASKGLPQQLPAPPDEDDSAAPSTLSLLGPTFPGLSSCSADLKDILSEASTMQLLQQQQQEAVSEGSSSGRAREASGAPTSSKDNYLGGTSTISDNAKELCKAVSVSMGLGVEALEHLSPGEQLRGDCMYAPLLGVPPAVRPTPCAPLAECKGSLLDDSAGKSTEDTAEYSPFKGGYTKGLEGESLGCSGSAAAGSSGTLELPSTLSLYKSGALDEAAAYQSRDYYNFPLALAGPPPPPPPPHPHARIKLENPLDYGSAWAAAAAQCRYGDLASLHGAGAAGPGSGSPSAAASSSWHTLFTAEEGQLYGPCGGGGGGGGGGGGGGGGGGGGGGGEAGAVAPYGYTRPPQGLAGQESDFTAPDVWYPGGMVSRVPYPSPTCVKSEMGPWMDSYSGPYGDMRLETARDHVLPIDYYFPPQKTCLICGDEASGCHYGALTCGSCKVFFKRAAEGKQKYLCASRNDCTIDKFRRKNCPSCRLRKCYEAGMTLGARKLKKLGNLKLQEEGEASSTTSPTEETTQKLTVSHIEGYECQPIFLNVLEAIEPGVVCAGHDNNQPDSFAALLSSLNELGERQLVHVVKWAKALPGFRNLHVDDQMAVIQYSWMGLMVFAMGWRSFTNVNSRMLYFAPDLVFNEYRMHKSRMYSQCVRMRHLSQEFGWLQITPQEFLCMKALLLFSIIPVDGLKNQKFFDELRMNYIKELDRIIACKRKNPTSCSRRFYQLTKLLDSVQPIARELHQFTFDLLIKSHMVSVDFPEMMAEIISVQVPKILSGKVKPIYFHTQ

Experiment [1] deals with N-terminal FLAG-tagged SMAD4 (UniProt Q13485). As to the kind of experiment: co-IP; HEK293T cells transfected with FLAG-tagged SMAD4 (or its deletion constructs) and AR constructs, treated with DHT 10 nM and BMP7 50 ng/mL for 12 h; nuclear extracts incubated overnight at 4 °C with anti-FLAG or anti-AR antibody (IgG isotype as control) on protein G Dynabeads; Western blot for AR and SMAD4.

Experiment [2] has as its target FLAG-tagged SMAD4 deletion construct with only the MH1 domain (UniProt Q13485). The experiment is described as above.

Results are given in words; binding and its absence hold for the method and conditions named. In cells and extracts the contact can be indirect. A result given as binding can be weak or reduced; the word gives no strength.

As to AR24Q (from UniProt P10275), the binding result in experiment [1] and in experiment [2] was “binds” each time.
